Assay results reported in publication PMC10627516.
Results are given in words; binding and its absence hold for the method and conditions named. Binding seen in cells or lysates may run through a third protein. Some binding calls cover weakened binding; strength is not graded here.

The chains behind the UniProt entries cited, without tags or fusion partners.
UniProt P47806: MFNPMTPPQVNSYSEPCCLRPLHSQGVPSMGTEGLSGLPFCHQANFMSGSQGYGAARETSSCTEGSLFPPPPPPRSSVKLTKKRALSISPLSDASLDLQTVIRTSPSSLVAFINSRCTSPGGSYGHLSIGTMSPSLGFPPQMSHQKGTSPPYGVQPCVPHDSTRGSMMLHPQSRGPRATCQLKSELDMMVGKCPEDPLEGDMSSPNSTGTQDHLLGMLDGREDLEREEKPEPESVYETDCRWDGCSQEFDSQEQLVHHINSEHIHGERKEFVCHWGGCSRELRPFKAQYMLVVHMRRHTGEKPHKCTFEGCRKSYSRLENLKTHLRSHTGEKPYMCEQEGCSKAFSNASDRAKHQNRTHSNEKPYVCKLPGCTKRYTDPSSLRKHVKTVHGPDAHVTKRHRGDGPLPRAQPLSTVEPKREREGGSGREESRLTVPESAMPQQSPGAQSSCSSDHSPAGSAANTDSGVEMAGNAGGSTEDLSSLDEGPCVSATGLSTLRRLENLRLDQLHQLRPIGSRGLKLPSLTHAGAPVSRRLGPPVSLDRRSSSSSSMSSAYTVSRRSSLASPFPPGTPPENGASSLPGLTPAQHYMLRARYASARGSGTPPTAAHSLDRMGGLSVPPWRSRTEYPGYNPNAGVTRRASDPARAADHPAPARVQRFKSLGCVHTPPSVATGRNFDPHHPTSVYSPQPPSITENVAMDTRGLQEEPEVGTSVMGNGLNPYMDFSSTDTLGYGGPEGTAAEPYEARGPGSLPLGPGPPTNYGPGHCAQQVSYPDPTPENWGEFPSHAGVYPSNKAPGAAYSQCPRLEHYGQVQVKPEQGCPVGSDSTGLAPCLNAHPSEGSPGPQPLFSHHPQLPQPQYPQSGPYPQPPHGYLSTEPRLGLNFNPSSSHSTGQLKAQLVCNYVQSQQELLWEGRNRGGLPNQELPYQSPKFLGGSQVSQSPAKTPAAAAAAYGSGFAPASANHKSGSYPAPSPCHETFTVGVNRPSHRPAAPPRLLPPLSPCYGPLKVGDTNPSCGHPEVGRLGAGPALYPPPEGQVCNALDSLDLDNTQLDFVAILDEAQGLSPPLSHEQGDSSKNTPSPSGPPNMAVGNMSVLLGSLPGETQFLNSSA
UniProt P13864: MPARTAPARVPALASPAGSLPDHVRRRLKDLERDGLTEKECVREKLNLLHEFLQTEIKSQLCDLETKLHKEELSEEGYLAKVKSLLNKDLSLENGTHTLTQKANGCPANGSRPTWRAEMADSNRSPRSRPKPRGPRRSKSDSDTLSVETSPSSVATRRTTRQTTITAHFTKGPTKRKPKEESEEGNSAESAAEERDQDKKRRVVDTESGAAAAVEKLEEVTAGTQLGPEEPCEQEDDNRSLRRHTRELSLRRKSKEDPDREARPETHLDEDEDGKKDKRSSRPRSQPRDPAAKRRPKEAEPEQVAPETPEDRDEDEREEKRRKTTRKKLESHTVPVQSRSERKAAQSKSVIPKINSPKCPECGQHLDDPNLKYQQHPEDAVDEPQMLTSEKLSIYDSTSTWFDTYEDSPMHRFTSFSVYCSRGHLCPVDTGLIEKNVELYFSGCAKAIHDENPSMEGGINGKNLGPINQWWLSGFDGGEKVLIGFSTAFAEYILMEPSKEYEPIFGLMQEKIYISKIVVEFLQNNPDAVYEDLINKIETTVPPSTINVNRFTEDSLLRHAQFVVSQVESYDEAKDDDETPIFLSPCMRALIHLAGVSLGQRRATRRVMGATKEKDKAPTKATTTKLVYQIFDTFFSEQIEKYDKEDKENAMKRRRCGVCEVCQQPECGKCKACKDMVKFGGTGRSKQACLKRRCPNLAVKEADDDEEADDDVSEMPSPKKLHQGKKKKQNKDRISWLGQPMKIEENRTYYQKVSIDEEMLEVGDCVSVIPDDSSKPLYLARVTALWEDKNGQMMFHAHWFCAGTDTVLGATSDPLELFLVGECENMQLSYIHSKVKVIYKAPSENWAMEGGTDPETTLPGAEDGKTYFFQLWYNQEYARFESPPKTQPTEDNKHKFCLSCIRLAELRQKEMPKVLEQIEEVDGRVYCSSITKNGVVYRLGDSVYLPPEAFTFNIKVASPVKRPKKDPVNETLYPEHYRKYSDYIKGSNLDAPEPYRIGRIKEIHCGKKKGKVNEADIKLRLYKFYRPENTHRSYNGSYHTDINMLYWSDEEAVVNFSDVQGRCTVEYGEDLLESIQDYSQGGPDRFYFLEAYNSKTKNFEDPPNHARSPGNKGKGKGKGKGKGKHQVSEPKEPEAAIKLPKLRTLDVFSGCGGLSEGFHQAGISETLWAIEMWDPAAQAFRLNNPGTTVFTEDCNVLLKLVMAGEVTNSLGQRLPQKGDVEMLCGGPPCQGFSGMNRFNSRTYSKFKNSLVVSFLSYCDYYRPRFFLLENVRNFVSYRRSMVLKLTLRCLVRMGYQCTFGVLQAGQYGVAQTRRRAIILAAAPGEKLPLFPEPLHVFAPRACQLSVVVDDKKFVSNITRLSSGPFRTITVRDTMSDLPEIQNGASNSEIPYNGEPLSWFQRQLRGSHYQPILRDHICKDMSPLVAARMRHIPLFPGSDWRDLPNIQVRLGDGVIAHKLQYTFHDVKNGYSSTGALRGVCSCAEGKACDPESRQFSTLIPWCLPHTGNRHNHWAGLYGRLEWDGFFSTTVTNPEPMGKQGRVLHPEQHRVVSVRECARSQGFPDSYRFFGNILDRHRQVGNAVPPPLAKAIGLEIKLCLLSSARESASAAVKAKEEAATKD

Target: Glioma-associated oncogene homolog 1 (GLI1) (mouse (endogenous in murine macrophages, RAW264.7 or BMMs)) (UniProt P47806)
Assay: co-IP; cells in the resting state lysed in RIPA buffer with protease inhibitor; anti-GLI1 antibody (Santa Cruz sc-515751) overnight at 4 °C, protein A agarose beads, washed with RIPA buffer; blots with DNMT1 and DNMT3a antibodies

binding: binds
Substance: DNA methyltransferase 1 (DNMT1) (from UniProt P13864 1-1620) (enzyme)
